The target in test [1] is T1, DISC1 (endogenous, mouse cortical neurons) (mouse (endogenous in primary cortical neurons)) (UniProt Q811T9).
T1 sequence: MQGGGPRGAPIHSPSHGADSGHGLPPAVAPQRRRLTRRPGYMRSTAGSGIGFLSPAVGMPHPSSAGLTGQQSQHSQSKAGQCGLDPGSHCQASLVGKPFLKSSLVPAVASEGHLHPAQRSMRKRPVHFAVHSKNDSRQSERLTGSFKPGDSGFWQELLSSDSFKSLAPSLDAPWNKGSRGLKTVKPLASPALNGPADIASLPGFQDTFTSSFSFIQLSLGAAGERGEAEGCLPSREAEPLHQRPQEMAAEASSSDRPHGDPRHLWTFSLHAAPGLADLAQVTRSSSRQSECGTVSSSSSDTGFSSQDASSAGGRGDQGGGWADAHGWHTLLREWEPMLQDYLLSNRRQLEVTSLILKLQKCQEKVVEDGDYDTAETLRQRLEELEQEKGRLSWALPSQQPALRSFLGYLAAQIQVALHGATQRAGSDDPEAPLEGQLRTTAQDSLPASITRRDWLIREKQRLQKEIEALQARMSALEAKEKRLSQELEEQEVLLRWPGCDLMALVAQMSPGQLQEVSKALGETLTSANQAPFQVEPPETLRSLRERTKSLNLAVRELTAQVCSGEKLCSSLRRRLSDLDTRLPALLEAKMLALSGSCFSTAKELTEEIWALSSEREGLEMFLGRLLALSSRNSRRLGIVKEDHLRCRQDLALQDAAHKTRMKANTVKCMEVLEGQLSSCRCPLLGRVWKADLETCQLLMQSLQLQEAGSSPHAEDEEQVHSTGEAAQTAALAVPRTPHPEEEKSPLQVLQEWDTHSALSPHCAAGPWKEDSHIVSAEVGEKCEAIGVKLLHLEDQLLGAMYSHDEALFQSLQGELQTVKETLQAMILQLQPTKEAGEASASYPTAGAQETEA
Kind of test: proximity ligation; Duolink In Situ Red PLA with anti-DISC1 (N-16) and anti-ErbB4 (C-18) on fixed DIV21 mouse cortical cultures, PG67-GFP-positive inhibitory neurons; cells treated with PBS (vehicle, no NRG1) for 5 min before fixation.

Amino acid sequences for entries named in this document (tags omitted). Residues count along the entry.
UniProt Q61527, residues 26-1308: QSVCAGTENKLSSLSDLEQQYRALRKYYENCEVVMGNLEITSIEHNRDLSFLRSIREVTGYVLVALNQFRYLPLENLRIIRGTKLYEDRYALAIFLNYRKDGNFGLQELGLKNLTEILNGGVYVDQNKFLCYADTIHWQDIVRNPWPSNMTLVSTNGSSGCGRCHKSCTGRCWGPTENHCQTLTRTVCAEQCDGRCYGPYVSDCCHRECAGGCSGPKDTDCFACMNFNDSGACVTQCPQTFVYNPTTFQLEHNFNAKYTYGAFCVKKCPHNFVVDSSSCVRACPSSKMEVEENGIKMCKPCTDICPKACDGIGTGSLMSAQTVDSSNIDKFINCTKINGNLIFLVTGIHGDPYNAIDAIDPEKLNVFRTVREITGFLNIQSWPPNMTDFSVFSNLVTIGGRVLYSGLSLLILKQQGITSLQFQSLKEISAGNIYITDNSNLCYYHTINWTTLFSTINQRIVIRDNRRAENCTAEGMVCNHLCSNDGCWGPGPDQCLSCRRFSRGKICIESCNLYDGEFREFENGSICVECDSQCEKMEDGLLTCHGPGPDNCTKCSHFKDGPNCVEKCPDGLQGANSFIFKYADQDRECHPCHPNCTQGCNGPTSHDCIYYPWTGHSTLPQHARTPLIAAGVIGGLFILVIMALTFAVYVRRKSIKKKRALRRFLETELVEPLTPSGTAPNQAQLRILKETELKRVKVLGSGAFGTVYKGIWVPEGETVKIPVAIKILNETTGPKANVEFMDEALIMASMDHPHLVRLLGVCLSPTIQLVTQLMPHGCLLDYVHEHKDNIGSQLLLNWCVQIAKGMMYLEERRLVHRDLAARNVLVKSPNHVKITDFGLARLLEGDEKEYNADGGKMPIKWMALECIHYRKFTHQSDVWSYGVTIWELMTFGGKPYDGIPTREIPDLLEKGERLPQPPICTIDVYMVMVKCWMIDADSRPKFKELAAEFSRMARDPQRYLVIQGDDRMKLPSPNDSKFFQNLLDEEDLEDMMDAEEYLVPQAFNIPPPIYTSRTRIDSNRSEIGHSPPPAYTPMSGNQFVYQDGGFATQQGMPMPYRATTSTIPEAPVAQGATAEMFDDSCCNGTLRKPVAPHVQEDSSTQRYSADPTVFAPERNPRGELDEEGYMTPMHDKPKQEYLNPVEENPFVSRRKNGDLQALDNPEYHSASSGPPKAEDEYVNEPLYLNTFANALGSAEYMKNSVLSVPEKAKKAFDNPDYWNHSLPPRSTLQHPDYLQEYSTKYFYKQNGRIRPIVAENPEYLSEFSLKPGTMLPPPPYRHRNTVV

The target in test [2] is T1, DISC1 (endogenous, mouse cortical neurons) (mouse (endogenous in primary cortical neurons)). Kind of test: proximity ligation; Duolink In Situ Red PLA with anti-DISC1 (N-16) and anti-ErbB4 (C-18) on fixed DIV21 mouse cortical cultures, PG67-GFP-positive inhibitory neurons; cells treated with NRG1β1 for 5 min before fixation.

These are yes or no findings as the source states them, for the method shown. Binding seen in cells or lysates may run through a third protein. Some results given as binding are weak or reduced against the parent protein; the word gives no strength.

“ErbB4 (endogenous, mouse cortical neurons) (from UniProt Q61527 26-1308) (receptor)”: the binding entry in test [1] is “no binding (condition: PBS-treated cells, without NRG1)”; in test [2], “binds”.

Values taken from paper PMC5099462.
